From US4965283A, “Amino acid esters, process for the preparation thereof and use thereof” (Dr. Willmar Schwabe GmbH & Co., priority 1987, dated 1990) come the findings set out here.

The data set has as its system mouse. The experiment in a line: observation for neurotoxicity symptoms (motility, muscle tonus, respiratory frequency, body temperature, general behaviour). The class given is in vivo. On the procedure: During the experiments described above, the animals were observed during the whole of the experimental period (up to 4 hours) for signs of substance-caused changes of behaviour and neurotoxicity (motility, muscle tonus, respiratory frequency, body temperature and general behaviour). Up to a dosage of 100 mg/kg, in the case of all the tested compounds, no neurotoxic symptoms were ascertained. In comparison hereto, Table 5 sets out the lower limiting dosages of conventional anticonvulsives which, after oral administration, bring about neurotoxicity symptoms in mice.

For `CN1C(=O)CN=C(c2ccccc2)c2cc(Cl)ccc21` [diazepam], the “Neurotoxic limiting dose in the mouse, dose p.o.” value turned out to be 40 mg/kg.
